Test results as given in PubChem BioAssay AID588497 (NMMLSC, 2011).
In all, about 360,000 compounds went through this assay and about 780 (0.22%) were called active. Inconclusive results, whose numbers are uncertain, are shown with a selection of clear calls. Rule as the data show it: active = inhibition above about 35% (passing the limit was not always enough); inconclusive = no clear call, values can overlap the other calls.

tested on: Botulinum neurotoxin type F light chain protease (Clostridium botulinum); assay: BoNT/F light chain protease inhibitors, primary screen, biochemical, flow cytometry, MLPCN library (AID 588497); conditions: Multiplex microsphere protease cleavage assay, at 10 µM, hits give high values; also: plate controls were buffer without enzyme for full effect and enzyme alone for no effect

Row | Compound | inhibition
1 | Cc1ccc(NC(=O)CN(C)S(=O)(=O)c2cccc3nsnc23)cc1 | inactive: 7.3%
2 | CC(=O)N1CCN(c2ccc(NC(=O)c3ccco3)cc2Cl)CC1 | inconclusive: 2.9%
3 | COc1ccc(S(=O)(=O)N(C)C[C@H]2Oc3c(NC(=O)CCC(F)(F)F)cccc3C(=O)N([C@H](C)CO)C[C@@H]2C)cc1 | inactive: 6.7%
4 | O=C(Cn1c(NCCO)nc2ccccc21)c1ccc(Cl)cc1Cl | inconclusive: 16.7%
5 | CCN(CC)CCn1c2c(c(SCC(=O)Nc3ccc4c(c3)OCCO4)nc1=O)CCC2 | inactive: -1.9%
6 | O=C(CC1CCCC1)Nc1ccc2c(c1)CCC2 | inconclusive: 24.9%
7 | O=c1ccc2cc(S(=O)(=O)Nc3ccc(Br)cc3)ccc2o1 | inconclusive: 3.4%
8 | Cc1oc(C(N)=O)nc1-c1ccccc1 | inconclusive: -13.4%
9 | Cc1ccc(Nc2ccccc2)nn1 | inconclusive: 26.6%
10 | COc1ccc(C(O)(C2CCCCC2)C(CN2CCCC2)c2ccccc2)cc1 (stereo not given) | inconclusive: 36%
11 | C/C(=N/NC(=O)c1nnn(-c2nonc2N)c1COc1ccccc1)c1ccccc1Cl | inactive: 13.4%
12 | Cc1ccc(S(=O)(=O)N2CCN(CC(=O)NC3CCCc4ccccc43)CC2)c(C)c1 (stereo not given) | inactive: -4.7%
13 | Nn1c(SCC(=O)Nc2ccccc2F)nnc1-c1cccs1 | inconclusive: -4.8%
14 | O=C(NNS(=O)(=O)c1ccccc1)c1ccc([N+](=O)[O-])cc1 | inconclusive: -1.7%
15 | COc1cccc(CN2CCNC(=O)C2CC(=O)N(C)Cc2cnccn2)c1OC (stereo not given) | inactive: -5.2%
16 | O=C(NNC(=O)c1cccnc1)Nc1ccc(Cl)c(Cl)c1 | inconclusive: -3.2%
17 | CCOc1cc(C(=O)Nc2ccc3c(c2)OCO3)ccc1OC(F)F | inactive: -4.8%
18 | CCC(=O)N(CCc1ccc(S(N)(=O)=O)cc1)C1CC(=O)N(c2ccc(OC)cc2)C1=O (stereo not given) | inactive: 2.4%
19 | Cc1ccc2oc(C(=O)N(CCO)Cc3ccccc3)c(C)c2c1 | inconclusive: -1.1%
20 | Cc1ccc(C2=N/C(=C\c3cccc(F)c3)C(=O)O2)cc1 | inconclusive: -18.7%
21 | Cc1noc(C)c1C(=O)Nc1sc(C)c(-c2ccccc2)c1C#N | inactive: 2.7%
22 | OC(CC#CCN1CCCC1)(c1ccccc1)c1ccccc1 | inconclusive: -104%
23 | COc1ccc(C2C3=C(CC(C)(C)CC3=O)Oc3ncn(Cc4ccco4)c(=N)c32)cc1 (stereo not given) | active: 36%
24 | OC(c1ccc(Cl)c(F)c1)c1ncc(-c2ccc(F)cc2)[nH]1 (stereo not given) | inactive: -4.1%
25 | COc1cccc(CN(C)C(=O)C2CCC(=O)N(Cc3cccc(F)c3)C2)c1 (stereo not given) | inconclusive: 11.3%

Given with tabs: part of the list above.
Row	Compound	inhibition
1	Cc1ccc(NC(=O)CN(C)S(=O)(=O)c2cccc3nsnc23)cc1	inactive: 7.3%
4	O=C(Cn1c(NCCO)nc2ccccc21)c1ccc(Cl)cc1Cl	inconclusive: 16.7%
5	CCN(CC)CCn1c2c(c(SCC(=O)Nc3ccc4c(c3)OCCO4)nc1=O)CCC2	inactive: -1.9%
12	Cc1ccc(S(=O)(=O)N2CCN(CC(=O)NC3CCCc4ccccc43)CC2)c(C)c1 (stereo not given)	inactive: -4.7%
23	COc1ccc(C2C3=C(CC(C)(C)CC3=O)Oc3ncn(Cc4ccco4)c(=N)c32)cc1 (stereo not given)	active: 36%
24	OC(c1ccc(Cl)c(F)c1)c1ncc(-c2ccc(F)cc2)[nH]1 (stereo not given)	inactive: -4.1%
